Test results taken from PubChem BioAssay (NCATS).
The list shows a part of the results. Shown are side measurements of this screen, not its main read-out; they come without a call. Compounds called inactive in the main read-out are mostly missing here. For some of these results: The note in brackets gives the kind of curve behind each potency; many fits are weak.

Test: qHTS Assay for Inhibitors of PDE-IV (AID 607)
Details: HEK293 ACTOne CNG channel cells, membrane potential fluorescence; measured here: parental cell counter-screen
Procedure, shortened: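 The readout is membrane depolarisation from a cAMP-sensing CNG channel, detected with a potential dye at ex 535/em 590. Cells were HEK293-derived (endogenous PDE-IV) at 1000 cells/well, titrated up to 22.9 uM final.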

SMILES	AC50
CCC(=O)O[C@@](Cc1ccccc1)(c1ccccc1)[C@@H](C)CN(C)C	6.31 µM [rising, partial curve, poor fit]
C[C@@]12CC[C@H](O)C[C@@H]1CC[C@H]1[C@H]2C[C@@H](O)[C@]2(C)[C@@H](C3=CC(=O)OC3)CC[C@@]12O	0.501 µM [rising, partial curve, poor fit]
COC(=O)[C@H]1C[C@@H]1[C@H](NP(=O)(c1ccccc1)c1ccccc1)c1ccccc1	1.58 µM [rising, full curve]
c1ccc(N2CCCC3(CCNCC3)C2)nc1	10 µM [rising, single point]

Test: qHTS assay for small molecule antagonists of retinoid X receptor alpha signaling (AID 588546);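 further: cells stimulated with 9-cis-retinoic acid as agonist; on the % scale 0 is the no-effect control and ±100 the full control effect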
Details: HEK293T RXRa-UAS-bla, beta-lactamase ratio, antagonist mode; measured here: W530 green channel, cytotoxicity proxy
Procedure, shortened: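 Beta-lactamase reporter inhibition, read as CCF4 fluorescence ratio (ex 405, em 460/530 nm) after 2 h at RT. HEK293T UAS-bla cells, 2500/well, were stimulated with 9-cis-RA at 500 or 100 nM final alongside test compound for 18 h at 37 C.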

SMILES	max response
Cc1[nH]c(=O)n(C(C)(C)C)c(=O)c1Cl	4.34%
CC12CC1(C)C(=O)N(c1cc(Cl)cc(Cl)c1)C2=O (configuration not stated)	5.26%
COc1cc(Cl)c(OC)cc1Cl	-20.5%
CCC(C)Nc1c([N+](=O)[O-])cc(C(C)(C)C)cc1[N+](=O)[O-] (configuration not stated)	8.6%
CC(C)CCON=O	2.88%

Test: S16 Schwann cell PMP22 intronic element beta-lactamase assay (AID 624044)
Details: S16 rat Schwann cells, PMP22 element beta-lactamase FRET, 24 h; measured here: 460 nm blue channel
Procedure, shortened: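 Rat S16 Schwann cells with beta-Lac driven by a PMP22 intronic element, compound-treated 24 h at 37 °C. LiveBLAzer FRET B/G read: 460 nm normalized to potassium clavulanate vs DMSO; 535 nm FRET as viability; concentration-effect curves classified.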

SMILES	AC50
NC(C(=O)O)[C@@H]1CC(Cl)=NO1 (some centres not stated)	19.9 µM [falling, partial curve]
O=C(NC(=O)c1c(F)cccc1F)Nc1cc(Cl)c(OC(F)(F)C(F)C(F)(F)F)cc1Cl (configuration not stated)	0.282 µM [falling, full curve, poor fit]
CCCSc1ccc2nc(NC(=O)OC)[nH]c2c1	1.2 µM [falling, full curve]
COc1cccc2c1C(=O)c1c(O)c3c(c(O)c1C2=O)C[C@@](O)(C(=O)CO)C[C@@H]3O[C@H]1C[C@H](N)[C@H](OC2CCCCO2)[C@H](C)O1 (some centres not stated)	1.99 µM [falling, full curve]
CCCCCCCCCC[N+](C)(C)CCCCCCCCCC	22.4 µM [falling, partial curve]
CN1CCc2cc(Cl)c(O)cc2[C@H]2c3ccccc3CC[C@@H]21	1.41 µM [falling, full curve, poor fit]
OCCOc1ccccc1	0.0446 µM [falling, full curve, poor fit]
CC(C)c1c(CN(C)[C@@H](C)Cc2ccccc2)n(C)n(-c2ccccc2)c1=O	0.00848 µM [falling, full curve]
C[N+](C)(C)CC(=O)[O-]	0.00355 µM [falling, full curve, poor fit]
Cc1ncc2n1-c1ccc(Cl)cc1C(c1ccccc1F)=NC2	0.501 µM [falling, full curve, poor fit]
CCC/C=C/C=C/C(=O)OC1/C(=C/C(=O)OC)CC2CC(C(C)O)OC(=O)CC(O)CC3CC(OC(C)=O)C(C)(C)C(O)(CC4C/C(=C/C(=O)OC)CC(/C=C\C(C)(C)C1(O)O2)O4)O3 (configuration not stated)	22.4 µM [falling, partial curve]
Cc1cc(C)cc(C(=O)OC2CC3CCC(C2)N3C)c1 (configuration not stated)	12.6 µM [falling, partial curve, poor fit]
C[C@]12CC[C@H]3[C@@H](CC=C4C[C@@H](O)CC[C@@]43C)[C@@H]1CC[C@@H]2O	1.26 µM [falling, full curve, poor fit]

Two successive entries already listed:
SMILES	AC50
CC(C)c1c(CN(C)[C@@H](C)Cc2ccccc2)n(C)n(-c2ccccc2)c1=O	0.00848 µM [falling, full curve]
C[N+](C)(C)CC(=O)[O-]	0.00355 µM [falling, full curve, poor fit]
